Experimental data from publication PMC10565642.
Substitutions are numbered along the chain they refer to. These are yes or no findings as the source states them, for the method shown. Binding seen in cells or lysates may run through a third protein. Some binding calls cover weakened binding; strength is not graded here. For part of these data: Where a sequence is shown, tags or fusion partners need not be part of it. Blank lines part the entries; values can stand above or below the binder they belong to.

What was measured:
[1] = biological target: T1, FLAG-tagged full-length NLRP1 (wild type) (human) (UniProt Q9C000); assay: co-IP; HEK293T cells transfected with FLAG-tagged NLRP1 constructs; lysis in 50 mM Tris-HCl, 150 mM NaCl, 1% NP40; 1 mg lysate with ANTI-FLAG M2 resin, 2 h at 4°C
T1 sequence: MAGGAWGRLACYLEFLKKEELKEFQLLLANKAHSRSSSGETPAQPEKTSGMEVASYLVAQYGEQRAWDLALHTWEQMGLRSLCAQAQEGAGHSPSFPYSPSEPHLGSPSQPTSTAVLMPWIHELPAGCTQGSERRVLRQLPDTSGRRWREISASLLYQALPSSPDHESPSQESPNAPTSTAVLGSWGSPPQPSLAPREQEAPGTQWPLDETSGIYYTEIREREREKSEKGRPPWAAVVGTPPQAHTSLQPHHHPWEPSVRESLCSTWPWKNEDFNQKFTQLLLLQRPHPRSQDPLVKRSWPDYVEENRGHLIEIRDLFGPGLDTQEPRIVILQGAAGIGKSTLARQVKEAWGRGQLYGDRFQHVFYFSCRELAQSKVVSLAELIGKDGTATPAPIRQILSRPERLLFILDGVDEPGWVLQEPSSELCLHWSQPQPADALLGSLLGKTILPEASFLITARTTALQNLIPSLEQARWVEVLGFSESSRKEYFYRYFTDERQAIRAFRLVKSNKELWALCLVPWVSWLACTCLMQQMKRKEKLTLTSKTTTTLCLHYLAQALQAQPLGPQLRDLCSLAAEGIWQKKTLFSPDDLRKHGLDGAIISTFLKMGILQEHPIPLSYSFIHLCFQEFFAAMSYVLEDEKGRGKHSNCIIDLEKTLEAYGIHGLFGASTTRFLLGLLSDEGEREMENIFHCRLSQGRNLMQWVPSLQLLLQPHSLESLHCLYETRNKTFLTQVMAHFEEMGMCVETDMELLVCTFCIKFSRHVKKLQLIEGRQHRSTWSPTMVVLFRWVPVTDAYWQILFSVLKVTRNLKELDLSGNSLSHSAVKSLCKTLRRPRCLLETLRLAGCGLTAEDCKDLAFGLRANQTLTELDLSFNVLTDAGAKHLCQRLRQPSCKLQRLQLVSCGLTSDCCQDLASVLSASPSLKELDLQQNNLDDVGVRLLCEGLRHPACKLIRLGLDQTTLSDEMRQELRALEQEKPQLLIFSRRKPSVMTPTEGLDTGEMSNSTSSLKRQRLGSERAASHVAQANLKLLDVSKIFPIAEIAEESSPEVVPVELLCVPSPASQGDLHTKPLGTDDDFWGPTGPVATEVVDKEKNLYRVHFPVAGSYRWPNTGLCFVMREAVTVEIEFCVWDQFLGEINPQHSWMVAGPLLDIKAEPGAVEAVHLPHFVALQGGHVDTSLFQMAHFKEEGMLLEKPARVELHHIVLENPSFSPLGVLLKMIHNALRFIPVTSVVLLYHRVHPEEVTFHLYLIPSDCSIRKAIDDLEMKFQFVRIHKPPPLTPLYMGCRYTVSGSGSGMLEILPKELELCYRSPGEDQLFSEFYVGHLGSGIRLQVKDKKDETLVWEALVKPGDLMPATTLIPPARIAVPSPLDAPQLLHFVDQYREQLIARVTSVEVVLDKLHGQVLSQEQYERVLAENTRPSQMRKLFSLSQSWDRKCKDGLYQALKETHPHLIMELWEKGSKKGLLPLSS

[2] = biological target: T2, FLAG-tagged full-length NLRP1 S1213A (autoproteolysis deficient) (human) (UniProt Q9C000); assay: as above
T2 sequence: T1 sequence with S1213A

[3] = biological target: T3, NLR family pyrin domain containing 1 (NLRP1), endogenous (human (endogenous in K562 and M-PBMCs)), Q9C000; assay: co-IP; endogenous proteins in K562 cells (Appendix Fig S4C); which protein was precipitated is not told; conditions: remark: other sources report otherwise
T3 chain: T1 sequence

binding [1]: binds
binding [2]: binds
B1: LRRFIP1 in HEK293 cells (protein, UniProt Q32MZ4 1-808)
chain: MTSPAAAQSREIDCLSPEAQKLAEARLAAKRAARAEAREIRMKELERQQKEEDSERYSRRSRRNTSASDEDERMSVGSRGSLRVEERPEKDFTEKGSRNMPGLSAATLASLGGTSSRRGSGDTSISIDTEASIREIKELNELKDQIQDVEGKYMQGLKEMKDSLAEVEEKYKKAMVSNAQLDNEKTNFMYQVDTLKDMLLELEEQLAESRRQYEEKNKEFEREKHAHSILQFQFAEVKEALKQREEMLEKHGIILNSEIATNGETSDTLNNVGYQGPTKMTKEELNALKSTGDGTLGRASEVEVKNEIVANVGKREILHNTEKEQHTEDTVKDCVDIEVFPAGENTEDQKSSEDTAPFLGTLAGATYEEQVQSQILESSSLPENTVQVESNEVMGAPDDRTRTPLEPSNCWSDLDGGNHTENVGEAAVTQVEEQAGTVASCPLGHSDDTVYHDDKCMVEVPQELETSTGHSLEKEFTNQEAAEPKEVPAHSTEVGRDHNEEEGEETGLRDEKPIKTEVPGSPAGTEGNCQEATGPSTVDTQNEPLDMKEPDEEKSDQQGEALDSSQKKTKNKKKKNKKKKSPVPVETLKDVKKELTYQNTDLSEIKEEEQVKSTDRKSAVEAQNEVTENPKQKIAAESSENVDCPENPKIKLDGKLDQEGDDVQTAAEEVLADGDTLDFEDDTVQSSGPRAGGEELDEGVAKDNAKIDGATQSSPAEPKSEDADRCTLPEHESPSQDISDACEAESTERCEMSEHPSQTVRKALDSNSLENDDLSAPGREPGHFNPESREDTRGGNEKGKSKEDCTMS

binding [3]: no binding
B2: Dipeptidyl Peptidase 9 (DPP9), endogenous, Q86TI2 1-863 (enzyme)
chain: MATTGTPTADRGDAAATDDPAARFQVQKHSWDGLRSIIHGSRKYSGLIVNKAPHDFQFVQKTDESGPHSHRLYYLGMPYGSRENSLLYSEIPKKVRKEALLLLSWKQMLDHFQATPHHGVYSREEELLRERKRLGVFGITSYDFHSESGLFLFQASNSLFHCRDGGKNGFMVSPMKPLEIKTQCSGPRMDPKICPADPAFFSFINNSDLWVANIETGEERRLTFCHQGLSNVLDDPKSAGVATFVIQEEFDRFTGYWWCPTASWEGSEGLKTLRILYEEVDESEVEVIHVPSPALEERKTDSYRYPRTGSKNPKIALKLAEFQTDSQGKIVSTQEKELVQPFSSLFPKVEYIARAGWTRDGKYAWAMFLDRPQQWLQLVLLPPALFIPSTENEEQRLASARAVPRNVQPYVVYEEVTNVWINVHDIFYPFPQSEGEDELCFLRANECKTGFCHLYKVTAVLKSQGYDWSEPFSPGEDEFKCPIKEEIALTSGEWEVLARHGSKIWVNEETKLVYFQGTKDTPLEHHLYVVSYEAAGEIVRLTTPGFSHSCSMSQNFDMFVSHYSSVSTPPCVHVYKLSGPDDDPLHKQPRFWASMMEAASCPPDYVPPEIFHFHTRSDVRLYGMIYKPHALQPGKKHPTVLFVYGGPQVQLVNNSFKGIKYLRLNTLASLGYAVVVIDGRGSCQRGLRFEGALKNQMGQVEIEDQVEGLQFVAEKYGFIDLSRVAIHGWSYGGFLSLMGLIHKPQVFKVAIAGAPVTVWMAYDTGYTERYMDVPENNQHGYEAGSVALHVEKLPNEPNRLLILHGFLDENVHFFHTNFLVSQLIRAGKPYQLQIYPNERHSIRCPESGEHYEVTLLHFLQEYL
